± gives the standard deviation of the averaged measurements. Some of the results follow. This data set is noisy: repeats of one test often differ as much as different tests do.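 Macrophages from blood monocytes of four pooled healthy donors, grown with M-CSF, were M1-like and treated with compounds that shifted resting macrophages M2-like in an initial screen. Z-score: t-test of cell eccentricity (~1000 cells/well) versus same-row DMSO wells. Reprogramming means passing the M2 cutoff of +6 from standard cytokine controls (M1 cutoff −4).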
Tested on: human monocyte-derived macrophages (polarized)
Test: cell shape (eccentricity) Z-score vs DMSO control; macrophage state: M1-polarized (IFNg + TNFa), cytokines removed before treatment; higher = more elongated, M2-like morphology
Details: 24 h; 5 µM

| Structure (SMILES) | cell shape (Z-score) |
| --- | --- |
| CC1(C)CCC(CN2CCN(c3ccc(C(=O)NS(=O)(=O)c4ccc(NCC5CCOCC5)c([N+](=O)[O-])c4)c(Oc4cnc5[nH]ccc5c4)c3)CC2)=C(c2ccc(Cl)cc2)C1 | 0.143 ± 2.9 |
| CC1(C)CC[C@]2(C(=O)O)CC[C@]3(C)C(=CCC4[C@@]5(C)CC[C@@H](O)C(C)(C)C5CC[C@]43C)C2C1 (some centres not stated) | -4.32 ± 6.6 |
| CC(C(=O)Nc1cccc(/N=C/c2c(O)ccc3ccccc23)c1)c1ccccc1 (configuration not stated) | -2.06 ± 3.7 |
| N[C@@H](CC(=O)N1CCn2c(nnc2C(F)(F)F)C1)Cc1cc(F)c(F)cc1F | 2.4 ± 4.4 |
| CO[C@H]1C[C@H](O[C@@H]2/C(C)=C/C[C@@H]3C[C@@H](C[C@]4(CC[C@H](C)[C@@H](C5CCCCC5)O4)O3)OC(=O)[C@@H]3C=C(C)/C(=N/O)[C@H]4OC/C(=C\C=C\[C@@H]2C)[C@]43O)O[C@@H](C)[C@@H]1O | 1.74 ± 2.8 |
| Cc1ccc(S(=O)(=O)OCC(=O)Nc2ccc(C(=O)O)c(O)c2)cc1 | 3.57 ± 11 |
| O=c1cc(-c2ccc(O)cc2)oc2cc(O)ccc12 | 3.84 |
| NC(=O)C1CCCc2c1[nH]c1ccc(Cl)cc21 (configuration not stated) | -0.09 ± 0.36 |
| C[C@H](CO)N1C[C@H](C)[C@H](CN(C)C(=O)Nc2cc(F)ccc2F)Oc2cc(C#CC3CCCC3)ccc2S1(=O)=O | -4.22 ± 8.2 |
| CC[C@H](Nc1ncnc2[nH]cnc12)c1nc2cccc(F)c2c(=O)n1-c1ccccc1 | -0.284 ± 7.8 |
| CC(C)(C)n1nc(-c2cccc3ccccc23)c2c(N)ncnc21 | 9.16 ± 8.2 |
| Cn1c2ccccc2c2c3c(c4c5ccccc5n(CCC#N)c4c21)CNC3=O | 2.8 ± 2.1 |

A stretch of the results above, as a working copy:

| Structure (SMILES) | cell shape (Z-score) |
| --- | --- |
| O=c1cc(-c2ccc(O)cc2)oc2cc(O)ccc12 | 3.84 |
| NC(=O)C1CCCc2c1[nH]c1ccc(Cl)cc21 (configuration not stated) | -0.09 ± 0.36 |
